Patent publication US20240287148A1, “ENGINEERED BIOMOLECULES FOR NUTRIENT REPROGRAMMING” (CORNELL UNIVERSITY, priority 2021, published 2024)
At least one structure is not confirmed: it was looked up by name or label, or the drawing left a doubt.

How the values were obtained:
Type in all cases: cell-based, mouse
ATF4 = ATF4 expression in MEF cells (western blotting, RT-qPCR of Atf4); conditions: eIF2a(S/S) and eIF2a(A/A) MEF cells, Erastin 20 μM; independent of eIF2α phosphorylation
Procedure: For cystine and methionine deprivation, the experiment was carried out by incubating cells in DMEM, high glucose, no glutamine, no methionine, no cystine (Thermo Fisher: 21013024) with 10% dialyzed FBS (Sigma Aldrich: F0392). For leucine, histidine, and arginine deprivation, the experiment was carried out by incubating cells in DMEM, high glucose, no arginine, no histidine, no leucine, respectively, (custom prepared by Gibco/Invitrogen) with 10% dialyzed FBS (Sigma Aldrich: F0392). For full amino acid starvation, the experiment was carried out by incubating cells in HBSS buffer (Lonza) with 10% dialyzed FBS (Sigma Aldrich: F0392). Samples were collected at indicated experimental time points.
Following experimental conditions, total RNA was isolated by TRIzol reagent (Invitrogen) and reverse transcription was performed using High-Capacity cDNA Reverse Transcription Kit (Invitrogen). […]
Cells were washed with PBS (Gibco) and then lysed on ice using cell lysis buffer (50 mM Tris [pH7.5], 150 mM NaCl, 1 mM EDTA, 1% Triton X-100, 2 U/ml DNase and protease inhibitor cocktail tablet). […] Collected supernatant was measured by protein assay (Bio-Rad: 500-0112) to quantify the protein concentration. […]

MEF cells [1] = assay: Intracellular cysteine and cystine measurement in MEF cells (HPLC); conditions: MEF cells treated with erastin 20 μM; normalized to protein
MEF cells [2] = assay: Cell viability assay (ferroptosis) in MEF cells; conditions: Erastin 20 μM, Sulfsalazine 200 μM
Procedure: Cells were seeded into 96-well plates at 3,000 cells per well. After 16 hr, cells were subject to conditions of the indicated experiments. Cells were incubated for 24 hr in their experimental conditions and cell viability was measured using the CellTiter-Blue viability assay (Promega) following the manufacturer's instructions. Relative cell viability in the presence of starvation and/or compounds was normalized to the vehicle-treated controls after background subtraction.

Structure (SMILES): CCOc1ccccc1-n1c(C(C)N2CCN(C(=O)COc3ccc(Cl)cc3)CC2)nc2ccccc2c1=O (centres unmarked) [erastin]
- ATF4 induction (Atf4 RT-qPCR, western blotting) (ATF4): robust induction
- intracellular cysteine level (MEF cells [1]): decreased
- intracellular cystine level (MEF cells [1]): decreased
- susceptibility of cells lacking cystinosin (cell viability) (MEF cells [2]; MEF cells with CTNS knockdown): highly susceptible
- ferroptosis (cell viability) (MEF cells [2]; MEF cells, 24 hrs): induced
